This passage reports cell number change and AC50 results from PubChem BioAssay AID2685 (National Center for Advancing Translational Sciences (NCATS), 2010).

This experiment is described as follows: qHTS Assay for Lipid Storage Modulators in Drosophila S3 Cells.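 As to cell number change: cells counted by Cell Tracker Red CMTPX staining in the red channel.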 The conditions noted are these: BODIPY lipid droplet fluorescence, 18-24 h; for cell number change: measured here: cell count max response, cells fed with added oleic acid. The gist of the method:
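Laser-scanning cytometry quantifies lipid droplet accumulation (500–530 nm total intensity; droplet/cell object ratio) in oleic acid-fed (400 uM added) Drosophila S3 cells treated with a concentration series. 20 uM Triacsin C defined 100% inhibition.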
Background: Quantitative high-throughput screening tests each substance at several concentrations.

The mark [1] stands for this setting: measured here: lipid fluorescence (Fed channel) AC50, cells fed with added oleic acid.
[2] abbreviates: measured here: cell number channel AC50, cells fed with added oleic acid.

SMILES strings stand for the structures. This is one part of the list. The main result of the screen is listed elsewhere. These columns were measured beside it and carry no call. Compounds called inactive in the main read-out are mostly missing here. The note in brackets gives the kind of curve behind each potency; many fits are weak.

A word on the AC50: it is the midpoint of the concentration-response curve, whichever way the signal moves. For the compound `CCCCNC(=O)CCCCCn1c(=O)[nH]c2cc(C(=O)OC)ccc2c1=O`, the cell number change is -23.1%. Moreover, the AC50 under setting [1] is 0.82 µM [falling, full curve, poor fit].

Consider `O=C(C1CC(=O)N(c2ccccc2)C1)N1CCC(c2nc3ccccc3[nH]2)CC1` (configuration not stated), for which the cell number change was 24.9%.

For the compound `CSc1sc(C(=O)O)c(C)c1C(C)=O`, the AC50 under setting [2] was 4.61 µM [falling, single point].

For `N#Cc1cn(-c2ccccc2)nc1-c1ccc2c(c1)OCCO2`, the cell number change amounted to 4.96%. Further, under setting [1], the concentration at half-maximal activity (AC50) is 6.51 µM [rising, single point].

For `Cc1cccc(C(=O)NCCCN2CCCC2=O)c1`, the cell number change is -79.8%. Further, the AC50 under setting [2] was 29.1 µM [falling, single point].

Consider `O=[N+]([O-])c1cc(S(=O)(=O)C(F)(F)F)ccc1Sc1nc2ccccc2s1`, for which the cell number change was -88.7%. For the same compound, the AC50 under setting [2] is 29.1 µM [falling, single point]. Further, the half-maximal activity concentration (AC50) under setting [1] was 29.1 µM [falling, single point].

As to `CS(=O)(=O)Nc1ccc2c(c1)C(=O)OC2`, the cell number change was -9.39%. For the same compound, the AC50 under setting [1] was 29.1 µM [falling, single point].

`CN1CCCCCC1=Nc1ccccc1C#N`: the cell number change was determined as 5.91%. Further, under setting [1], the AC50 was 6.51 µM [falling, single point].

Turning to `O=C1C(C2=C(O)c3ccccc3C2=O)=Nc2ccccc21`, the cell number change is -0.276%. Further, the AC50 under setting [1] is 2.91 µM [falling, single point].

Regarding `O=[N+]([O-])c1ccc(C2Nc3cccc4cccc(c34)N2)cc1`, the cell number change was -28.1%. Under setting [1], the AC50 is 29.1 µM [falling, single point].

For the compound `CC(C)N(C(=O)COC(=O)c1ccccc1C(=O)c1ccc(Cl)c([N+](=O)[O-])c1)C(C)C`, the cell number change was -42.1%. Moreover, the concentration at half-maximal activity (AC50) under setting [2] was 0.58 µM [falling, full curve]. The concentration at half-maximal activity (AC50) under setting [1] is 1.3 µM [falling, full curve].

Turning to `COc1ccc(Br)c(C(=O)Nc2nc3ccccc3[nH]2)c1`, the cell number change is 38.2%. In addition, the AC50 under setting [2] is 13 µM [rising, partial curve, poor fit].

As for `CSc1nccc(Oc2cccc(C#N)c2)n1`, the cell number change was -57.4%. Moreover, under setting [2], the AC50 was 23.1 µM [falling, single point]. Under setting [1], the AC50 is 18.4 µM [falling, single point].

Regarding `C[C@@]12CC(=O)NC1N(C(=O)c1cccc(C(F)(F)F)c1)C(c1ccccc1OC(=O)c1cccc(C(F)(F)F)c1)C2` (some centres not stated), the cell number change was -112%. Besides, the AC50 under setting [2] is 2.31 µM [rising, partial curve]. Besides, the concentration at half-maximal activity (AC50) under setting [1] was 6.51 µM [rising, single point].

On to `O=C(CCN1C(=O)[C@@H]2Cc3ccccc3CN2C1=O)NCc1ccc(Cl)cc1`, for which the AC50 under setting [1] is 2.31 µM [rising, single point].

`CCOc1ccc(N2C(=O)CC(SCC(=O)O)C2=O)cc1` (configuration not stated): the cell number change is -16.7%. Under setting [1], the AC50 was 16.4 µM [falling, single point].

Regarding `CSc1nnc(C(C)(C)C)c(=O)n1/N=C/c1ccc(Cl)cc1`, the cell number change came out at 2.67%. Moreover, the concentration at half-maximal activity (AC50) under setting [2] is 0.184 µM [rising, full curve, poor fit]. In addition, under setting [1], the half-maximal activity concentration (AC50) was 6.51 µM [rising, partial curve, poor fit].

As to `COc1ccc(-c2nc(NC(=O)c3ccc(OCC(=O)Nc4ccc(F)cc4)c(OC)c3)sc2C)cc1`, the cell number change was -47.5%. In addition, under setting [2], the half-maximal activity concentration (AC50) is 29.1 µM [falling, single point]. Further, under setting [1], the AC50 was 29.1 µM [falling, single point].

Take `COc1ccccc1NC(=O)N1CCC(C(=O)c2ccc(F)cc2)CC1`: the cell number change came out at 13.8%. The AC50 under setting [1] is 0.291 µM [rising, partial curve, poor fit].

Turning to `CCN(CC)c1ccc(C(=O)OCC(=O)Nc2cccc(S(=O)(=O)NC3=NCCCCC3)c2)cc1`, the cell number change came out at 36.3%. In addition, under setting [2], the AC50 is 4.11 µM [rising, full curve].

`CN(c1ccccc1)c1ccc(/C=c2\s/c(=C(/C#N)C(=O)C(C)(C)C)n(Cc3ccco3)c2=O)cc1`: the cell number change is -99.4%. Under setting [2], the AC50 was 29.1 µM [falling, partial curve, poor fit].

As to `O=Cc1c(N2CCN(CCO)CC2)nc2ccccn2c1=O`, the cell number change came out at 36.5%.

For the compound `Nc1nnc(SCC(=O)NC2CCCCCCC2)s1`, the cell number change turned out to be 8.7%. Besides, under setting [1], the AC50 was 14.6 µM [falling, partial curve, poor fit].

For `Cc1cccc(N2CC(=O)N(c3cccc(C)c3)CC2=O)c1`, the cell number change is 6.92%.

`COc1cccc(NS(=O)(=O)c2ccc3c(c2)n(C)c(=O)c(=O)n3C)c1`: the AC50 is 1.3 µM [rising, full curve] under setting [2] and 1.3 µM [rising, full curve] under setting [1].

Take `O=S(=O)(Nc1ccc(-n2cnnn2)cc1)c1ccc(F)c(F)c1F`: the cell number change was -21.2%. Besides, under setting [2], the AC50 was 2.06 µM [rising, partial curve]. Besides, under setting [1], the concentration at half-maximal activity (AC50) was 3.66 µM [rising, partial curve].

Turning to `O=[N+]([O-])c1ccc(/C=N/Nc2nc3ccccc3o2)cc1`, the cell number change is -16.9%. Moreover, under setting [2], the AC50 was 0.731 µM [rising, single point]. The AC50 under setting [1] was 29.1 µM [falling, single point].

For the compound `CCOc1ccc(NC(=O)C(C)Oc2ccc(C#N)cc2)cc1S(=O)(=O)N1CCCC1` (configuration not stated), the cell number change was -22.2%. The concentration at half-maximal activity (AC50) under setting [1] is 29.1 µM [falling, single point].

With `COc1cccc(NC(=S)N(CCc2c(C)[nH]c3ccc(C)cc23)Cc2cccs2)c1`, the cell number change was -24.3%. Moreover, the AC50 under setting [2] was 0.0206 µM [falling, full curve, poor fit]. Under setting [1], the AC50 is 0.00461 µM [falling, full curve, poor fit].

On to `C/C(=N/NC(=O)c1ccoc1C)c1cccc(NC(=O)C(F)(F)F)c1`, for which the cell number change amounted to 0.326%.

In the case of `Cn1c(N2CCN(C(c3ccccc3)c3ccccc3)CC2)nc2ccccc21`, the cell number change came out at 27.8%. Besides, under setting [1], the AC50 was 9.2 µM [rising, partial curve].

For the compound `N#C/C(=C1/CCCCCN1)c1nc2ccccc2s1`, the cell number change is -12.2%. Moreover, the AC50 under setting [1] was 6.51 µM [falling, single point].

`COc1ccc(N2CCN(CC(=O)Nc3cccc(S(=O)(=O)N4CCOCC4)c3)CC2)cc1`: under setting [1], the concentration at half-maximal activity (AC50) is 18.4 µM [falling, partial curve].

Consider `Cc1ccc(OCC(=O)NC(=S)Nc2cccc(C)n2)cc1`, for which the cell number change is -3.4%.

Consider `CCOC(=O)C1CCN(C(=O)c2ccc(OC3CCN(C(=O)COC)CC3)cc2)CC1`, for which the cell number change came out at 4.42%. The AC50 under setting [1] was 29.1 µM [rising, single point].

Regarding `Cc1cccc(C)c1NC(=O)CN(C)CC(=O)N(C)CC(=O)Nc1ccccc1Br`, the cell number change came out at 4.37%. The AC50 under setting [2] was 0.0058 µM [falling, full curve, poor fit].

In the case of `Cc1ccc(OCCN(C)C(=O)C2CCC(=O)N(Cc3ccccc3F)C2)cc1` (configuration not stated), the cell number change stood at 14.1%. Besides, the AC50 under setting [2] is 7.31 µM [rising, single point].

For `CSCCC(NC(=O)c1ccccc1)C(=O)N1CCCCCCC1` (configuration not stated), the cell number change is 9.91%. In addition, the AC50 under setting [1] is 4.11 µM [rising, single point].

For the compound `COCCNc1ccc(-c2nn(C)c(=O)c3ccccc23)cc1[N+](=O)[O-]`, the cell number change came out at 22.4%. The concentration at half-maximal activity (AC50) under setting [1] was 3.26 µM [rising, partial curve, poor fit].

As for `O=C1C=C(Nc2ccccc2)C(=O)c2ccccc21`, the cell number change is -49.9%. Further, under setting [2], the half-maximal activity concentration (AC50) was 32.6 µM [falling, partial curve, poor fit]. The AC50 under setting [1] is 25.9 µM [falling, partial curve, poor fit].

Take `CS(=O)(=O)N(CC(=O)N1CCCCCC1)Cc1ccc(Cl)cc1`: the cell number change stood at 34.9%. In addition, the AC50 under setting [2] is 29.1 µM [rising, single point].

Regarding `CCn1c(Cc2ccccc2)nnc1SCC(=O)Nc1ccccc1`, the cell number change came out at 11.6%. Besides, under setting [2], the AC50 is 6.51 µM [rising, single point].

Take `CN(C)C(CNc1ccc(C(F)(F)F)cn1)c1ccccc1` (configuration not stated): the cell number change was -7.56%.

`CSc1cccc(NC(=O)c2ccc(NC3=NC4CS(=O)(=O)CC4S3)cc2)c1` (configuration not stated): the cell number change was 13.8%.

With `Cc1cccc(N2CCCn3c2nc2c3c(=O)n(CCN3CCOCC3)c(=O)n2C)c1`, the cell number change was determined as 6.45%.

On to `COc1ccc(C2CC(=O)C3=C(C2)Nc2ccccc2N(C(=O)CCC(=O)O)C3c2ccc(F)cc2)cc1` (configuration not stated), for which the cell number change is -22.4%. The concentration at half-maximal activity (AC50) under setting [1] was 1.3 µM [falling, full curve].

On to `Cc1cc(O)c(C(C)C)cc1C1(c2cc(C(C)C)c(O)cc2C)OC(=O)c2ccccc21`, for which the cell number change was -36%. Also, the concentration at half-maximal activity (AC50) under setting [2] is 5.17 µM [falling, partial curve, poor fit].

With `Cn1cc(-c2cccc(Cl)c2)cc(C#N)c1=O`, the cell number change is -68.8%. Also, under setting [1], the half-maximal activity concentration (AC50) was 0.00517 µM [falling, full curve, poor fit].

Turning to `Cn1c(CCNC(=O)c2ccccc2F)nnc1SCc1nc2ccccc2c(=O)[nH]1`, the cell number change worked out at 7.89%. Besides, the half-maximal activity concentration (AC50) under setting [1] was 9.2 µM [rising, partial curve].

With `CC(C)CN1C(=O)N(c2ccc(Cl)cc2)C(C)(O)CC1(C)C` (configuration not stated), the cell number change was -34.5%. Moreover, under setting [2], the AC50 was 20.6 µM [falling, single point]. Besides, the AC50 under setting [1] was 25.9 µM [falling, single point].

With `Cc1ccccc1-c1n[nH]c(=S)n1C`, the cell number change amounted to 8.02%. For the same compound, under setting [1], the AC50 was 29.1 µM [rising, single point].

Turning to `C=CCNC(=O)c1ccc(-c2nc(-c3ccccc3)cs2)cc1`, the cell number change was -57%. The AC50 under setting [2] was 20.6 µM [falling, single point]. Further, the half-maximal activity concentration (AC50) under setting [1] is 29.1 µM [falling, single point].

Turning to `COc1cccc(-c2coc3c(C)c4oc(=O)c(CCC(=O)O)c(C)c4cc23)c1`, the cell number change was -10.7%. Besides, the concentration at half-maximal activity (AC50) under setting [1] was 29.1 µM [falling, single point].

Turning to `O=C(Nc1ccccc1Br)C1CC(=O)N(c2ccc3c4c(cccc24)CC3)C1` (configuration not stated), the cell number change came out at 6.77%. Further, the AC50 under setting [2] was 4.11 µM [falling, single point]. Besides, the AC50 under setting [1] was 6.51 µM [falling, single point].

As to `CC(CNc1ccccc1O)C(=O)O` (configuration not stated), the cell number change amounted to 55.4%. Besides, the AC50 under setting [2] is 18.4 µM [rising, single point].

Turning to `Cc1ccc(SCCNC(=O)c2ccc([N+](=O)[O-])c(C)c2)cc1`, the cell number change is -4.2%. In addition, the AC50 under setting [1] is 29.1 µM [falling, single point].

Consider `Nc1c(N(Cc2ccco2)C(=O)COc2ccccc2F)c(=O)[nH]c(=O)n1Cc1ccccc1`, for which the cell number change was -21.8%. Besides, the AC50 under setting [2] was 1.64 µM [falling, full curve, poor fit]. The AC50 under setting [1] was 1.16 µM [falling, full curve].
